Experimental findings from PMC9832115 are described below.

This test has as its target T1, DRC3 (mouse (endogenous in testis)) (UniProt Q9D5E4).
T1 sequence: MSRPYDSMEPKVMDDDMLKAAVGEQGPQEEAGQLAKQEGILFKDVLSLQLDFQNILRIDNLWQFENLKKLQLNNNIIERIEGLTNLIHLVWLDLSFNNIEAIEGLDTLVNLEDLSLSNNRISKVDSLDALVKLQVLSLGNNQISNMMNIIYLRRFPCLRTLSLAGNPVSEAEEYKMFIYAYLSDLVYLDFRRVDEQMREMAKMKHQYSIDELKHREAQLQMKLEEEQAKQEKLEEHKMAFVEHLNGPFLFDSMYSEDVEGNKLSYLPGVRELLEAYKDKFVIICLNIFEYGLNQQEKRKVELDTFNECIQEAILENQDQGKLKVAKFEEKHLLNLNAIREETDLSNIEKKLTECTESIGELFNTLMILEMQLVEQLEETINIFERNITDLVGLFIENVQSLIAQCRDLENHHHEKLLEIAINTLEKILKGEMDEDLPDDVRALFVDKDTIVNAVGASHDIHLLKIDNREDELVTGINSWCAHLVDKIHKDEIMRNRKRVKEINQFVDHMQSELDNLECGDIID
As to the kind of experiment: affinity purification with mass spectrometry; immunoprecipitation-mass spectrometry, testicular protein from wild-type mice.

No constants are given. Whether binding was seen depends on the method and setting. In cells and extracts the contact can be indirect. Here binding means that the protein was enriched with, or labelled near, the bait; the list need not be complete.

B1: IFT22 (protein, UniProt Q9DAI2 1-185)
chain: MLKAKILFVGPCESGKTVLANFLTESSDITEYNPTQGVRILEFENPHVTSNNKGTGCEFELWDCGGDSKFESCWPALMKDAHGVVIVFNADIPSHLKEIEMWYSCFVQQQFLQDSHCMLVAHHKPGSGGERGSLALSPPLNKLKLVHSNLEEDPEEVRVEFIKYLKSIINSMSESRDREEMLIIT
Regarding B1, the binding entry was “binds”.

B2: IFT81 (protein, UniProt O35594 1-676)
chain: MSDQIKFIVDSLNKEPFKKNYNLITFDSLGPMQLLQVLNDVLAEIDPKQDVDIREEMPEQTAKRMLNLLGILKYKPPGNATDMSTFRQGLVIGSKPVIYPVLHWLLQRSNELKKRAYLARFLIKLEVPSEFLQDETVADTNKQYEELMEAFKTLHKECEQLKTSGFSTAEIRRDISAMEEEKDQLMKRVERLKKRVETVQNHQRMLKIARQLRVEKEREEFLAQQKQEQKNQLFHAVQRLQRVQNQLKSMRHAAADAKPESLMKRLEEEIKFNSYMVTEKFPKELESKKKELHFLQKVVSEPAMGHSDLLELETKVNEVNTEINQLIEKKMMRNEPIEGKLSLYRQQASIISRKKEAKAEELQETKEKLASLEREVLVKTNQTREFDGTEVLKGDEFKRYVSKLRSKSTVFKKKHQIIAEFKAEFGLLQRTEELLKQRQETIQHQLRTIEEKKGISGYSYTQEELERVSALKSEVDEMKGRTLDDMSEMVKKLNSLVSEKKSALAPVIKELRQLRQKCQELTQECDEKKAQYDSCAAGLESNRSKLEQEVRGLREECLQEESKYHYTNCMIKNLEVELRRATDEMKAYVSSDQQEKRKAIREQYTKNITEQENLGKKLREKQKAVRESHGPNMKQAKMWRDLEQLMECKKQCFLKQQSPASIGQVIQEGGEDRLVL
As to B2, the binding result is reported as “binds”.
